The assay has as its target human EphA7 (recombinant, EphA7/ephrin-A5 competition assay) (human) (UniProt Q15375). Briefly: AlphaScreen or HTRF; competition: human EphA7 (3 nM) preincubated 1 h with increasing Nb, then biotinylated His-tagged human ephrin-A5 (30 nM); anti-IgG acceptor and streptavidin donor beads; 50 mM Hepes, 100 mM NaCl, 0.1% Triton, 0.1% BSA; both purified. (In general: Alpha assays give light when donor and acceptor beads are brought close together.)

By UniProt entry, the sequences of proteins in these tests, tags left out. Where a name states a change or a piece, a line headed by the entry shows the natural chain unless it says otherwise.
UniProt Q15375: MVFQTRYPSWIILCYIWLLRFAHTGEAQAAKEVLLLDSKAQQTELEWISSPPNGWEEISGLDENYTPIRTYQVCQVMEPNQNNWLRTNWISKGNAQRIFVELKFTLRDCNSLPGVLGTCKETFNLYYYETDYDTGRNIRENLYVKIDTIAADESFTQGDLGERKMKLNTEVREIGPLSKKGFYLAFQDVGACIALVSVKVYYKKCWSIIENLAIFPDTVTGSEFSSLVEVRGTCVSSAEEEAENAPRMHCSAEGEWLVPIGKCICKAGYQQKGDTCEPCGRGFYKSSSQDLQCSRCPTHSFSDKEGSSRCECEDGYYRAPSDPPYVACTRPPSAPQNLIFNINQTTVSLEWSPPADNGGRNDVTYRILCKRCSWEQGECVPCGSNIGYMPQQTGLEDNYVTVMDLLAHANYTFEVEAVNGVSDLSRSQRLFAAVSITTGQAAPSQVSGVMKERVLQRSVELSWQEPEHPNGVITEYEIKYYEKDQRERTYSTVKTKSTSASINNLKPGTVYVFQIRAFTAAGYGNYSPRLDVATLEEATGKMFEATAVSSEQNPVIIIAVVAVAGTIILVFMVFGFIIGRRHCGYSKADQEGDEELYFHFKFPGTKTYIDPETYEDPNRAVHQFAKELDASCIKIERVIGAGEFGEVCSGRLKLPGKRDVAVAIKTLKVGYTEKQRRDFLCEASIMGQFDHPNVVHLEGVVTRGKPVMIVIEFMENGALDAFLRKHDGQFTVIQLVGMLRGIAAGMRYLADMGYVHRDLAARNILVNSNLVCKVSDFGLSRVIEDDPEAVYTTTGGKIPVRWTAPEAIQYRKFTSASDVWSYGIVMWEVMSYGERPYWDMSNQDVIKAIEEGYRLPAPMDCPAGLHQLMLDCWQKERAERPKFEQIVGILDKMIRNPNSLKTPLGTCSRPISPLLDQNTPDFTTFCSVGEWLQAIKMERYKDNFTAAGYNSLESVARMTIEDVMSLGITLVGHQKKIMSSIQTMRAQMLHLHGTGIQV

These are yes or no findings as the source states them, for the method shown. A result given as binding can be weak or reduced; the word gives no strength. Sequences can lack the tags named with a protein.

These results are taken from PMC5500810.

B1: His-tagged human ephrin-A5 (Sino Biological), biotinylated (ligand, UniProt P52803 21-203)
chain: QDPGSKAVADRYAVYWNSSNPRFQRGDYHIDVCINDYLDVFCPHYEDSVPEDKTERYVLYMVNFDGYSACDHTSKGFKRWECNRPHSPNGPLKFSEKFQLFTPFSLGFEFRPGREYFYISSAIPDNGRRSCLKLKVFVRPTNSCMKTIGVHDRVFDVNDKVENSLEPADDTVHESAEPSRGEN
modifications: biotin on primary amines (EZ link NHS biotin)
As to B1, the binding result is recorded as “binds”.
